The values that follow are results of earlier work, collected in US20220040100A1, “Stable Acyclovir Sodium Parenteral Formulation” (RK Pharma Solutions LLC, priority 2020, published 2022).

Counter-ions that a name gives are not always drawn.

The conditions of the data set: 25° C.

For `Nc1nc2c(ncn2COCCO)c(=O)[nH]1` [Acyclovir sodium, 2-amino-1,9-dihydro-9-[(2-hydroxyethoxy)methyl]-6H-purin-6-one monosodium salt], the “maximum solubility in water” value is given as “exceeds 100 mg/mL”.
